Cleaved PARP in drug-treated melanoma cells

Data from the primary screen of doi:10.1371/journal.pone.0140310, rounded.

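The test systems are human melanoma cell lines, treated with two drugs together for 72 h and then stained and imaged. Values are the share of nuclei positive for cleaved PARP as a percentage of the same share in the DMSO control: 100 is the control level, higher means more apoptosis. Every drug was used at one fixed concentration, the higher of two screened. These are primary screening values without error estimates. The marker varies much from line to line, for technical or biological reasons.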 An unselected part of the screen is shown. A dash means that no value is listed here.

Drugs:
darinaparsin, 2 µM: C[As](C)SC[C@H](NC(=O)CC[C@H](N)C(=O)O)C(=O)NCC(=O)O
vatalanib, 10 µM: Clc1ccc(Nc2nnc(Cc3ccncc3)c3ccccc23)cc1
PLX4720, 0.4 µM: CCCS(=O)(=O)Nc1ccc(F)c(C(=O)c2c[nH]c3ncc(Cl)cc23)c1F
pazopanib, 2 µM: Cc1ccc(Nc2nccc(N(C)c3ccc4c(C)n(C)nc4c3)n2)cc1S(N)(=O)=O
dasatinib, 0.02 µM: Cc1nc(Nc2ncc(C(=O)Nc3c(C)cccc3Cl)s2)cc(N2CCN(CCO)CC2)n1
etoposide, 0.1 µM: COc1cc([C@@H]2c3cc4c(cc3[C@@H](O[C@@H]3O[C@@H]5CO[C@@H](C)O[C@H]5[C@H](O)[C@H]3O)[C@H]3COC(=O)[C@H]23)OCO4)cc(OC)c1O
JZL184, 5 µM: O=C(Oc1ccc([N+](=O)[O-])cc1)N1CCC(C(O)(c2ccc3c(c2)OCO3)c2ccc3c(c2)OCO3)CC1
NVP-BEZ235, 0.02 µM: Cn1c(=O)n(-c2ccc(C(C)(C)C#N)cc2)c2c3cc(-c4cnc5ccccc5c4)ccc3ncc21
vismodegib, 5 µM: CS(=O)(=O)c1ccc(C(=O)Nc2ccc(Cl)c(-c3ccccn3)c2)c(Cl)c1
everolimus, 0.1 µM: CO[C@H]1C[C@@H]2CC[C@@H](C)[C@@](O)(O2)C(=O)C(=O)N2CCCC[C@H]2C(=O)O[C@H]([C@H](C)C[C@@H]2CC[C@@H](OCCO)[C@H](OC)C2)CC(=O)[C@H](C)/C=C(\C)[C@@H](O)[C@@H](OC)C(=O)[C@H](C)C[C@H](C)/C=C/C=C/C=C/1C

Drugs	SK-MEL-28	MZ2-MEL	SK-MEL-30
pazopanib + vatalanib	108	63.4	253
etoposide + vatalanib	161	223	95.3
darinaparsin + dasatinib	216	306	170
vatalanib + JZL184	36.1	118	87.7
vismodegib + dasatinib	190	92.5	87.8
pazopanib + JZL184	52.3	43.4	170
darinaparsin + vatalanib	332	79.5	188
pazopanib + etoposide	118	158	93.7
pazopanib + dasatinib	25.2	354	75.2
dasatinib + JZL184	48.4	-	126
darinaparsin + etoposide	79.9	179	110
JZL184 + NVP-BEZ235	101	73.6	355
etoposide + PLX4720	83.9	-	176
vatalanib + NVP-BEZ235	198	365	131
NVP-BEZ235 + dasatinib	129	154	42.8
vismodegib + JZL184	82.8	32.0	137
pazopanib + PLX4720	38.2	48.1	125
vatalanib + everolimus	99.0	171	262
PLX4720 + darinaparsin	72.8	89.8	138
everolimus + PLX4720	88.8	150	266
pazopanib + everolimus	77.5	46.5	48.0
pazopanib + NVP-BEZ235	107	69.3	74.4
pazopanib + vismodegib	78.5	63.4	154
dasatinib + etoposide	141	770	39.4
NVP-BEZ235 + vismodegib	31.9	32.2	68.3
etoposide + everolimus	77.0	64.7	170
everolimus + darinaparsin	175	145	161
everolimus + NVP-BEZ235	119	377	225
PLX4720 + vismodegib	74.7	-	77.6
everolimus + vismodegib	96.1	185	78.5
vatalanib + PLX4720	221	76.9	168
etoposide + JZL184	40.3	171	146
JZL184 + PLX4720	127	70.5	123
darinaparsin + NVP-BEZ235	113	53.9	150
darinaparsin + vismodegib	111	46.1	75.6
vismodegib + etoposide	130	164	150
PLX4720 + NVP-BEZ235	51.2	85.2	229
darinaparsin + JZL184	57.8	40.7	177

Once more, the final 2:

Drugs	SK-MEL-28	MZ2-MEL	SK-MEL-30
PLX4720 + NVP-BEZ235	51.2	85.2	229
darinaparsin + JZL184	57.8	40.7	177